Results as given in the supplement of paper PMC10338343.
± gives the standard deviation. This is a selection; strong and weak results do not stand in their true shares. Many entries were measured with a wide error. The list shows a part of the results.

How the values were obtained:
[1] = system: MILI (PIWIL2) piRISC loaded with L1MC piRNA (26 nt); assay: pre-steady-state target cleavage rate (min^-1); higher = faster piRNA-guided slicing of the target; details: guide: L1MC piRNA 5'p-UAACUAAAUACUAUGCAAGCUGUAGG
Summary of the method: (§1)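 Cleave-'n-Seq: a transcribed, DNA-blocked target RNA library (0.1 nM) was mixed with 1 nM active affinity-purified piRISC carrying one synthetic guide, with or without 500 nM GTSF1 partner protein, in HEPES–potassium acetate buffer at 33 °C for 0–8 or 0–960 min. Uncleaved targets were sequenced and normalised to depth and to weakly complementary targets. Three trials were pooled, and k3 was capped at 0.0001 min^-1. The pre-steady-state cleavage rate came from a burst-and-steady-state fit.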

[2] = system: EfPiwi piRISC loaded with L1MC piRNA (26 nt); assay: pre-steady-state target cleavage rate (min^-1); guide: L1MC piRNA 5'p-UAACUAAAUACUAUGCAAGCUGUAGG; higher = faster piRNA-guided slicing of the target
Summary of the method: as §1

[3] = system: MIWI (PIWIL1) piRISC loaded with L1MC piRNA (30 nt); assay: pre-steady-state target cleavage rate (min^-1); MIWI and MILI are mouse PIWI proteins and EfPiwi is from a freshwater sponge; tags in brackets are library labels; higher = faster piRNA-guided slicing of the target; details: guide: L1MC piRNA 5'p-UAACUAAAUACUAUGCAAGCUGUAGGUCCU; auxiliary factor: none (no GTSF1)
Summary of the method: as §1

[4] = auxiliary factor: 500 nM mouse GTSF1
[5] = auxiliary factor: none (no GTSF1)
[6] = auxiliary factor: none (no Gtsf1)
[7] = auxiliary factor: 500 nM Ephydatia muelleri Gtsf1

With UCCUGGAUGUCGUUGCAUAGUUUUUACUUA the “pre-steady-state target cleavage rate” value [1, 4] was 0.000631 ± 0.013, the “pre-steady-state target cleavage rate” value [1, 5] was 0.000282 ± 0.025 and the “pre-steady-state target cleavage rate” value [2, 6] was 0.000123 ± 0.063.
For UCCUGGAUCAGCUUGCAUAGUUAUUAGUAA, the “pre-steady-state target cleavage rate” value [1, 4] was 0.00826 ± 0.0047, the “pre-steady-state target cleavage rate” value [1, 5] was 0.00216 ± 0.0026 and the “pre-steady-state target cleavage rate” value [2, 7] was 0.00246 ± 0.0032.
UCCUGGUACAGCUUGCAUAGUAAUUACUUA was tested, and the “pre-steady-state target cleavage rate” value [1, 4] was 0.00729 ± 0.0052, the “pre-steady-state target cleavage rate” value [1, 5] was 0.00166 ± 0.0054 and the “pre-steady-state target cleavage rate” value [2, 7] was 0.00196 ± 0.0047.
UCCUCCUACAGCUUGGAUAGUAAUUAGUUA was tested, and the “pre-steady-state target cleavage rate” value [1, 4] was 0.25 ± 0.024, the “pre-steady-state target cleavage rate” value [1, 5] was 0.00499 ± 0.0021 and the “pre-steady-state target cleavage rate” value [2, 7] was 0.0274 ± 0.0089.
UCCUGGAACAGCUUGCAUAGUAAUUAGUAA was tested, and the “pre-steady-state target cleavage rate” value [1, 4] was 0.108 ± 0.015, the “pre-steady-state target cleavage rate” value [1, 5] was 0.0019 ± 0.0034 and the “pre-steady-state target cleavage rate” value [2, 7] was 0.00418 ± 0.0019.
With UCCUGCUACUAGCUUGCAUAGUAUUUAGUUA the “pre-steady-state target cleavage rate” value [1, 4] was 0.176 ± 0.022, the “pre-steady-state target cleavage rate” value [1, 5] was 0.0074 ± 0.0023 and the “pre-steady-state target cleavage rate” value [2, 7] was 0.00699 ± 0.0025.
For UCCUGGAUGUGCUUGUAUAGUAUUUAGUUA, the “pre-steady-state target cleavage rate” value [1, 4] was 0.142 ± 0.017, the “pre-steady-state target cleavage rate” value [1, 5] was 0.0136 ± 0.004 and the “pre-steady-state target cleavage rate” value [2, 7] was 0.0218 ± 0.0071.
With UCCUGGAUGUGCUUGCAUAGUAUCUUAGUUA the “pre-steady-state target cleavage rate” value [1, 4] was 0.135 ± 0.019, the “pre-steady-state target cleavage rate” value [1, 5] was 0.0069 ± 0.0028 and the “pre-steady-state target cleavage rate” value [2, 7] was 0.00353 ± 0.0036.
In the case of UCCUGGAUGUGCUUGCAUACAAUUUAGAAA, the “pre-steady-state target cleavage rate” value [1, 4] is reported as 0.000815 ± 0.011, the “pre-steady-state target cleavage rate” value [1, 5] is reported as 0.000546 ± 0.012 and the “pre-steady-state target cleavage rate” value [2, 7] is reported as 0.000236 ± 0.017.
In the case of UCCUCCUACAGCUUGCAGAGUAUUUAGUUA, the “pre-steady-state target cleavage rate” value [1, 4] is reported as 0.218 ± 0.021, the “pre-steady-state target cleavage rate” value [1, 5] is reported as 0.00823 ± 0.0022 and the “pre-steady-state target cleavage rate” value [2, 6] is reported as 0.00115 ± 0.0059.
UCCUCCUACAGGUAGCAUAGUAUUUAGUUA was tested, and the “pre-steady-state target cleavage rate” value [1, 4] was 0.273 ± 0.013, the “pre-steady-state target cleavage rate” value [1, 5] was 0.00904 ± 0.0021 and the “pre-steady-state target cleavage rate” value [2, 7] was 0.0265 ± 0.006.
For UCCUGGAUCAGCUUGCAUAGUAAAUAGUUA, the “pre-steady-state target cleavage rate” value [1, 4] was 0.171 ± 0.024, the “pre-steady-state target cleavage rate” value [1, 5] was 0.00496 ± 0.0026 and the “pre-steady-state target cleavage rate” value [2, 6] was 0.0029 ± 0.0047.
In the case of UCCUGCUACAGCUGUGCAUAGUAUUUAGUUA, the “pre-steady-state target cleavage rate” value [1, 4] is reported as 0.263 ± 0.025, the “pre-steady-state target cleavage rate” value [1, 5] is reported as 0.0081 ± 0.0032 and the “pre-steady-state target cleavage rate” value [2, 6] is reported as 0.000576 ± 0.0092.
In the case of UCCUCCUACAGCUUGCAUAGUAAUUAGUUA, the “pre-steady-state target cleavage rate” value [1, 4] is reported as 0.275 ± 0.022, the “pre-steady-state target cleavage rate” value [1, 5] is reported as 0.00666 ± 0.0023 and the “pre-steady-state target cleavage rate” value [2, 7] is reported as 0.0117 ± 0.0045.
In the case of UCCUGCUACAGCUUGCAUUGUUUUUAGUUA, the “pre-steady-state target cleavage rate” value [1, 4] is reported as 0.0212 ± 0.007, the “pre-steady-state target cleavage rate” value [1, 5] is reported as 0.00289 ± 0.0028 and the “pre-steady-state target cleavage rate” value [2, 7] is reported as 0.00145 ± 0.0031.
In the case of UCCUGGAUGUCGAACCAAAGUAUUUAGUUA, the “pre-steady-state target cleavage rate” value [1, 4] is reported as 0.000588 ± 0.011, the “pre-steady-state target cleavage rate” value [1, 5] is reported as 0.000186 ± 0.0098 and the “pre-steady-state target cleavage rate” value [3] is reported as 0.000148 ± 0.02. The “pre-steady-state target cleavage rate” value [2, 7] was less than 0.0001.
For UCCUGGAACUGCUUGCAAAGUAUUUAGUUA, the “pre-steady-state target cleavage rate” value [1, 4] was 0.117 ± 0.01, the “pre-steady-state target cleavage rate” value [1, 5] was 0.00518 ± 0.0021 and the “pre-steady-state target cleavage rate” value [2, 7] was 0.0228 ± 0.008.
UCCUGGAACUGCUUGCAUAGUAUUUAGAAA was tested, and the “pre-steady-state target cleavage rate” value [1, 4] was 0.103 ± 0.019, the “pre-steady-state target cleavage rate” value [1, 5] was 0.00165 ± 0.0043 and the “pre-steady-state target cleavage rate” value [2, 7] was 0.00485 ± 0.0026.
In the case of UCCUGGAACAGCAUGCAUAGUAUAUAGUUA, the “pre-steady-state target cleavage rate” value [1, 4] is reported as 0.247 ± 0.025, the “pre-steady-state target cleavage rate” value [1, 5] is reported as 0.0058 ± 0.0025 and the “pre-steady-state target cleavage rate” value [2, 7] is reported as 0.0106 ± 0.005.
For UCCUGGAUGCGCUUGCAUAGUAUUUAGUUA, the “pre-steady-state target cleavage rate” value [1, 4] was 0.239 ± 0.016, the “pre-steady-state target cleavage rate” value [1, 5] was 0.0108 ± 0.0028 and the “pre-steady-state target cleavage rate” value [2, 7] was 0.0286 ± 0.0065.
UCCUGGAUGUGCUUGCAUAGUUUUUAGAUA was tested, and the “pre-steady-state target cleavage rate” value [1, 4] was 0.00296 ± 0.0065, the “pre-steady-state target cleavage rate” value [1, 5] was 0.00131 ± 0.0053 and the “pre-steady-state target cleavage rate” value [2, 7] was 0.000583 ± 0.0068.
In the case of UCCUGGAACAGCUUGCAUAGUAUUAAGUAA, the “pre-steady-state target cleavage rate” value [1, 4] is reported as 0.0909 ± 0.024, the “pre-steady-state target cleavage rate” value [1, 5] is reported as 0.000961 ± 0.0073 and the “pre-steady-state target cleavage rate” value [2, 7] is reported as 0.00572 ± 0.0023.
For UCCUGGUACAGCUUGCAUUGUAUUUAGUUA, the “pre-steady-state target cleavage rate” value [1, 4] was 0.171 ± 0.017, the “pre-steady-state target cleavage rate” value [1, 5] was 0.0101 ± 0.0041 and the “pre-steady-state target cleavage rate” value [2, 7] was 0.00513 ± 0.002.
In the case of UCCUGGUACAGCAUGCAUAGUAUAUAGUUA, the “pre-steady-state target cleavage rate” value [1, 4] is reported as 0.241 ± 0.038, the “pre-steady-state target cleavage rate” value [1, 5] is reported as 0.00583 ± 0.0028 and the “pre-steady-state target cleavage rate” value [2, 7] is reported as 0.00569 ± 0.0031.
For UCCUGCUACAGCUUGUAUAGUAUUUAGUUA, the “pre-steady-state target cleavage rate” value [1, 4] was 0.255 ± 0.015, the “pre-steady-state target cleavage rate” value [1, 5] was 0.00693 ± 0.0021 and the “pre-steady-state target cleavage rate” value [2, 7] was 0.029 ± 0.0067.
For UCCUCCUACAGCUUGGCAUAGUAUUUAGUUA, the “pre-steady-state target cleavage rate” value [1, 4] was 0.338 ± 0.057, the “pre-steady-state target cleavage rate” value [1, 5] was 0.00447 ± 0.0021 and the “pre-steady-state target cleavage rate” value [2, 7] was 0.0133 ± 0.0047.
With UCCUGGUACGGCUUGCAUAGUAUUUAGUUA the “pre-steady-state target cleavage rate” value [1, 4] was 0.195 ± 0.03, the “pre-steady-state target cleavage rate” value [1, 5] was 0.0133 ± 0.0047 and the “pre-steady-state target cleavage rate” value [2, 7] was 0.00921 ± 0.0043.
In the case of UCCUGGAACAGCUUGCACAGUAUUUAGUUA, the “pre-steady-state target cleavage rate” value [1, 4] is reported as 0.169 ± 0.014, the “pre-steady-state target cleavage rate” value [1, 5] is reported as 0.0128 ± 0.003 and the “pre-steady-state target cleavage rate” value [2, 7] is reported as 0.0589 ± 0.015.
UCCUCCUUCAGCUUGCAUAGUAUUUUGUUA was tested, and the “pre-steady-state target cleavage rate” value [1, 4] was 0.139 ± 0.021, the “pre-steady-state target cleavage rate” value [1, 5] was 0.00287 ± 0.002 and the “pre-steady-state target cleavage rate” value [2, 7] was 0.00463 ± 0.0027.
In the case of UCCUCCUACAGCUUCAUAGUAUUUAGUUA, the “pre-steady-state target cleavage rate” value [1, 4] is reported as 0.238 ± 0.013, the “pre-steady-state target cleavage rate” value [1, 5] is reported as 0.0049 ± 0.002 and the “pre-steady-state target cleavage rate” value [2, 7] is reported as 0.0399 ± 0.015.
In the case of UCCUGGAUGUGCUUGCAUAGUAUAAAGUUA, the “pre-steady-state target cleavage rate” value [1, 4] is reported as 0.0611 ± 0.011, the “pre-steady-state target cleavage rate” value [1, 5] is reported as 0.00318 ± 0.0025 and the “pre-steady-state target cleavage rate” value [2, 6] is reported as 0.00115 ± 0.0092.
UCCUCCAACAGCUUGCAUAGUAUUUAGAUA was tested, and the “pre-steady-state target cleavage rate” value [1, 4] was 0.192 ± 0.034, the “pre-steady-state target cleavage rate” value [1, 5] was 0.00442 ± 0.0025 and the “pre-steady-state target cleavage rate” value [2, 7] was 0.0051 ± 0.0023.
For UCCUGCUACAGCUUGCAUUCUAUUUAGUUA, the “pre-steady-state target cleavage rate” value [1, 4] was 0.0454 ± 0.0087, the “pre-steady-state target cleavage rate” value [1, 5] was 0.00339 ± 0.0024 and the “pre-steady-state target cleavage rate” value [2, 7] was 0.001 ± 0.0042.
“UCCUGGUACAGCUUGCAUAGUAUUUAGUUU [g2:g24:cont:t1U]” was tested, and the “pre-steady-state target cleavage rate” value [1, 4] was 0.249 ± 0.016, the “pre-steady-state target cleavage rate” value [1, 5] was 0.0218 ± 0.0053 and the “pre-steady-state target cleavage rate” value [2, 7] was 0.117 ± 0.038.
UCCUGGAACCGCUUGCAUAGUAUUUAGUUA was tested, and the “pre-steady-state target cleavage rate” value [1, 4] was 0.265 ± 0.015, the “pre-steady-state target cleavage rate” value [1, 5] was 0.0108 ± 0.002 and the “pre-steady-state target cleavage rate” value [2, 7] was 0.0172 ± 0.0054.
With UCCUGGUACAGCUUGCAUUAGUAUUUAGUUA the “pre-steady-state target cleavage rate” value [1, 4] was 0.017 ± 0.0074, the “pre-steady-state target cleavage rate” value [1, 5] was 0.00174 ± 0.006 and the “pre-steady-state target cleavage rate” value [3] was 0.00109 ± 0.0078. For the same sequence, the “pre-steady-state target cleavage rate” value [2, 7] was 0.00177 ± 0.0057.
In the case of UCCUGGAUGUGCAUGCAUUGUAUUUAGUUA, the “pre-steady-state target cleavage rate” value [1, 4] is reported as 0.0212 ± 0.0051, the “pre-steady-state target cleavage rate” value [1, 5] is reported as 0.00604 ± 0.0024 and the “pre-steady-state target cleavage rate” value [3] is reported as 0.00226 ± 0.0036. For the same sequence, the “pre-steady-state target cleavage rate” value [2, 7] was 0.000524 ± 0.0088.
